Results are given as percent effect. How 0% and 100% were set is not recorded. Most values in the screen are low, and negative values occur. The compounds are a random part of those screened. Two or more numbers in one place are separate tests of the same structure; such repeats can differ widely.

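Viability assay of Plasmodium falciparum sporozoites; the read-out is not stated. The concentration is filed as 10 mM, unlikely as a test dose, so the dose is not known. Higher reads as lower viability (inferred: compounds with an IC50 in retests scored well above the rest). Strong results were mostly tested again. About 34,000 compounds were tested under these conditions; 0.84% (about 280) showed 50% or more at least once.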

| # | compound | percent effect |
|---|---|---|
| 1 | `Cn1ccc(C(=O)N2CCN(c3ncccn3)CC2)cc1=O` | 8.48 |
| 2 | `c1cncc(COc2ccccc2CNC2CCc3ncnn3C2)c1` (stereo not drawn) | -2.051 |
| 3 | `COc1cccc(COCC(=O)N2CCCC(c3cc(C)[nH]n3)C2)c1` (stereo not drawn) | 7.84 |
| 4 | `Cc1cnn(C(C)C2CC2)c1NC(=O)c1ncccc1O` (stereo not drawn) | -6.505 |
| 5 | `CCOCCC(=O)N1CCCN(c2ccccc2C)CC1` | 0.8284 |
| 6 | `CN(CC(N)=O)Cc1cc(Cl)cc2cccnc12` | 3.183 |
| 7 | `[H][C@@]12COC[C@]1(COCc1ccccn1)CN(c1ncccn1)C2` | 13.32 |
| 8 | `O=C(c1ccc2c(c1)CCC2)N1CCC(c2n[nH]c(C3CC3)n2)CC1` | -2.894 |
| 9 | `CN1CC(=O)N(c2ccccc2)CC12CCN(S(C)(=O)=O)C2.O=C(O)C(F)(F)F` (stereo not drawn) | 10.27 |
| 10 | `CN(C)C(=O)Cc1nc(CN2CCn3c(nnc3C3CC3)C2)cs1` | -0.4177 |
| 11 | `CCOCC(=O)Nc1ncn(Cc2cccc(Br)c2)n1` | -31.38 and -38.2 |
| 12 | `CN1CCC(c2n[nH]c3ncccc23)C1.O=CO` (stereo not drawn) | 8.507 |
| 13 | `CN1N=C(C(=O)N(Cc2ccco2)C2CC2)CCC1=O` | 3.044 |
| 14 | `Cc1cc(C)nc(N2CCC(c3ccnc(N(C)C)n3)CC2)n1` | 4.215 |
| 15 | `Cc1nc(Nc2ncccn2)cc(C2CN(C(=O)c3cccnc3)C2)n1` | -2.038 |
| 16 | `Cc1cccc(-c2nc(CNC3CCc4ncnn4C3)no2)c1` (stereo not drawn) | -6.802 |
| 17 | `CCOc1cncc(N2CCOCC2)n1` | 17.34 |
| 18 | `CC(C)N1CCC(Cc2cncc(-c3cc(F)ccc3C(=O)O)n2)C1` (stereo not drawn) | 1.266 |
| 19 | `O=C(O)C(F)(F)F.O=C(O)C(F)(F)F.[H][C@@]12COC[C@]1(CNC(=O)c1cccn1C)CN(Cc1cccc(C)n1)C2` | -2.92 |
| 20 | `CCOc1cccc2c1OCC(=O)N(c1ccc(N(C)C)cc1)C2` | 28.54 and 37.33 |
| 21 | `O=C(O)C(F)(F)F.[H][C@@]12CN(C(=O)c3cc(C)oc3C)C[C@]1([H])OCCN2CCN1CCCC1` | 5.241 |
| 22 | `Cl.O=C(NCCn1nc(C2CCNC2)c2cccnc21)c1ccccn1` (stereo not drawn) | 6.869 |

2 of the entries, repeated:

* CCOc1cncc(N2CCOCC2)n1 | 17.34%
* O=C(O)C(F)(F)F.[H][C@@]12CN(C(=O)c3cc(C)oc3C)C[C@]1([H])OCCN2CCN1CCCC1 | 5.241%

Source: ChEMBL document CHEMBL3988442, “University of Dundee, Small-Polar-MMV Screening Library” (2021).